Measured values published in article PMC7819943, “Rice protein-binding microarrays: a tool to detect cis-acting elements near promoter regions in rice”.
The list shows a part of the results.

Chains of the proteins cited; added tags and fusions are not shown.
UniProt Q0JBA9, entry or part of it: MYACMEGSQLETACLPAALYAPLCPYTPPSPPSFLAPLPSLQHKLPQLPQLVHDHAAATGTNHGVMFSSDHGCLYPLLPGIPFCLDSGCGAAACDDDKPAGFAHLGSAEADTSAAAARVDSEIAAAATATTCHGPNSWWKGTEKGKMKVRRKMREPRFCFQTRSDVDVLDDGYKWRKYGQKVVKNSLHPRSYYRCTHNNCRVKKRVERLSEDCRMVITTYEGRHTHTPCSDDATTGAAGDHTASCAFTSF

Biological target: OsWRKY34 (Oryza sativa, UniProt Q0JBA9 1-250)
Assay: protein-binding microarray (RPBM); PBS, 2% BSA, 51.3 ng/ul salmon testes DNA, 50 uM zinc acetate, 200 nM TF, 25 C, 1 h; high values mean tight binding
Details: protein: recombinant; tags: N-terminal polyhistidine and DsRed monomer fusion (pET32a); label: CyDye5-dUTP incorporated in the synthesized complementary strand; 3' TTTTT single-stranded linker to array surface; dsDNA, one strand shown
In short: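 The binding signal for each feature is its fluorescence intensity in arbitrary units. An Axon 4000B scanner was used to read a custom Agilent array that had been made double-stranded with Cy5-dUTP primer extension, blocked with 2% BSA, incubated at 25 °C for 1 h with 200 nM protein in PBS, 2% BSA, salmon testes DNA and 50 µM zinc acetate, and washed. The protein was an N-terminal polyhistidine–DsRed transcription factor fusion from E. coli BL21-CodonPlus, purified on Ni–NTA.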

Sequence	binding signal
CTCTCCTCTCTTCTCGAGCGCGGCGGCGGTGGTGGGGAGGCGGAGTCACCTAGTGCAG	14300 fluorescence intensity (a.u.)
TGTTCTTCCCTTTTTCTTTCTTGGAATTCGATATTTCGATCGGAGTCACCTAGTGCAG	9390 fluorescence intensity (a.u.)
AACGAAAGATTGAACCCCTGACCGGACCACTGCTACTTTGCGGAGTCACCTAGTGCAG	8520 fluorescence intensity (a.u.)
TACAAGCCCGTTGCCATCTCTACTCCGGCCTCCTAGTCCTCGGAGTCACCTAGTGCAG	9760 fluorescence intensity (a.u.)
GCTACACCGCACCCACCACAGCCAGACTTGAACTTGTTGACGGAGTCACCTAGTGCAG	8950 fluorescence intensity (a.u.)
CGTAACCTTGGCCTATATTTGATATTTCTCTCCGGCGATACGGAGTCACCTAGTGCAG	9700 fluorescence intensity (a.u.)
TGGTCAAGCCCTTTTTGATCTTTTTTTTTCTGTCTCATGCCGGAGTCACCTAGTGCAG	9610 fluorescence intensity (a.u.)
TCACCCTTCACCTGCATGATCCTCTCTTTTTCAATCCCTCCGGAGTCACCTAGTGCAG	9340 fluorescence intensity (a.u.)
TGTAATGCCATGACTCTTTCAGTAATTCCTGCAGCTTGTCCGGAGTCACCTAGTGCAG	9810 fluorescence intensity (a.u.)
TCCCGACCACCGCCGCCGCCGCCGCCCACCTCCTCCTCCGCGGAGTCACCTAGTGCAG	9990 fluorescence intensity (a.u.)
ATACAACTTTTCAGTCACATCGTACCAATTTCAATCCAAACGGAGTCACCTAGTGCAG	9720 fluorescence intensity (a.u.)
ATCACTTCAGCTTGGCCGCGTTCTTTTCAGTGGTTGGGTTCGGAGTCACCTAGTGCAG	11400 fluorescence intensity (a.u.)
GCCATCACGCTCCCGCTCTACCGCAACCTCCCGCCCGTCCCGGAGTCACCTAGTGCAG	11000 fluorescence intensity (a.u.)
AGAACACAAATAAAGCTTTATTTATTCTATTGTTTTGTTTCGGAGTCACCTAGTGCAG	8370 fluorescence intensity (a.u.)
GCTCTTAGCTGCTGTTCTATGCAATTGTTCAATATTTTTTCGGAGTCACCTAGTGCAG	8520 fluorescence intensity (a.u.)
GATCCCAACGCCGACCCTACACGTCATCCCTACGCCTCGTCGGAGTCACCTAGTGCAG	10700 fluorescence intensity (a.u.)
ATCTTCTTATGTTCTTTGTCTGTGCAACTTTTGATAGAAACGGAGTCACCTAGTGCAG	13500 fluorescence intensity (a.u.)
GTCAATCCATCCACCGCTGGTTAACAGTGCGCATGAACATCGGAGTCACCTAGTGCAG	9720 fluorescence intensity (a.u.)
TTTGTTTTCATTTCATGTTCATATTCATATTTTCTTGTCTCGGAGTCACCTAGTGCAG	8360 fluorescence intensity (a.u.)
TTTGTTGTCTCTTCATCCTACGTATTCTTTTTTTGCAATTCGGAGTCACCTAGTGCAG	8730 fluorescence intensity (a.u.)
ATCGTACTGGGGTTAGTGGGGTGGATTATGTTATCTCTACCGGAGTCACCTAGTGCAG	14800 fluorescence intensity (a.u.)

Copied from the list:
Entry for TCACCCTTCACCTGCATGATCCTCTCTTTTTCAATCCCTCCGGAGTCACCTAGTGCAG under binding signal: 9340 fluorescence intensity (a.u.)
Entry for TCCCGACCACCGCCGCCGCCGCCGCCCACCTCCTCCTCCGCGGAGTCACCTAGTGCAG under binding signal: 9990 fluorescence intensity (a.u.)

Additional results follow.

Sequence	binding signal
CCGCGTCCAACTTTGATCGTCCGTCTTATTTGAAACTTTTCGGAGTCACCTAGTGCAG	10700 fluorescence intensity (a.u.)
CGATTCCCAACCCTAACCGTCGTCACTGCCACCGCCAGCCCGGAGTCACCTAGTGCAG	8470 fluorescence intensity (a.u.)
CTTATAAATCCTTCACTTTTGCGTGCACTAACCTACCAAACGGAGTCACCTAGTGCAG	8750 fluorescence intensity (a.u.)
TACAGACCAAATCACCCGAATCGATCTCTGCCGTCCATCTCGGAGTCACCTAGTGCAG	9790 fluorescence intensity (a.u.)
CTTTGTCCCATTCGTTTTTTATTTTTGGCCCGCTTTGTACCGGAGTCACCTAGTGCAG	10100 fluorescence intensity (a.u.)
CATGCAAGACATGGTTTCCTTCTCTTTTCTCATTTTTTCGCGGAGTCACCTAGTGCAG	8580 fluorescence intensity (a.u.)
TTAGTACATTCAATTATTGCTGGAGTTCTAGTTTTTTTTTCGGAGTCACCTAGTGCAG	8480 fluorescence intensity (a.u.)
GGAGGTACACAAAGGGGTGTGGTGGTTTCATAAGTTTCAACGGAGTCACCTAGTGCAG	10400 fluorescence intensity (a.u.)
ACCCTCACCTCGTTCTCTATTTCTCCGTCCCAGCCACTGTCGGAGTCACCTAGTGCAG	12200 fluorescence intensity (a.u.)
CATCTCTCTCAACTCTCTGCAGCCCATTCACTGCACCAGTCGGAGTCACCTAGTGCAG	9360 fluorescence intensity (a.u.)
AGCTATTATTCATCCGAATCCGTTCCGTTTTCACCAATAACGGAGTCACCTAGTGCAG	9570 fluorescence intensity (a.u.)
ATAAGTGTTCTATCTCTCCTTTACGTTCCTTGATTCAATCCGGAGTCACCTAGTGCAG	8820 fluorescence intensity (a.u.)
GAGAAAAGGAGGGCAGAGATGGAGTGAGTGGCTTTGACTTCGGAGTCACCTAGTGCAG	8340 fluorescence intensity (a.u.)
TACTCTCTCTTGTGTCTGAATTGTGGACTTCCTCATTCAGCGGAGTCACCTAGTGCAG	8580 fluorescence intensity (a.u.)
CCTTCCGCCCGATCATTCCCAGCGCCGACTGGCTACTCTGCGGAGTCACCTAGTGCAG	10600 fluorescence intensity (a.u.)
CACTCGATCCCCATTCCTTCACATGATCTTGCACCCCGCTCGGAGTCACCTAGTGCAG	8180 fluorescence intensity (a.u.)
TTTTAACTTTGATCCAGTTCGCGTGTTCAATTCTCAACACCGGAGTCACCTAGTGCAG	8620 fluorescence intensity (a.u.)
TCGCTGTTGGGGAATGGGGAGTAGTAGTAGTAACTGTAGCCGGAGTCACCTAGTGCAG	9560 fluorescence intensity (a.u.)
TCAGCAACTCCAACCGATCCACTAATTACACGTCAGCTTGCGGAGTCACCTAGTGCAG	8130 fluorescence intensity (a.u.)
CACACCATCTCACCATCTGCCCTTTCTTAATGGCAAACAACGGAGTCACCTAGTGCAG	8280 fluorescence intensity (a.u.)
CTCTCTGGCAGCAACAGTTCACATGGCCTAGTTGACATTACGGAGTCACCTAGTGCAG	9080 fluorescence intensity (a.u.)
